Test results as given in paper PMC7806492.
These are yes or no findings as the source states them, for the method shown. In cells and extracts the contact can be indirect. Some results given as binding are weak or reduced against the parent protein; the word gives no strength. For some assays here: Tags and fused reporters may be left off the sequences shown. One block for each molecule: values may come before it.

Amino acid sequences for entries named in this document (tags omitted). Residues count along the entry.
UniProt P16070, residues 21-742: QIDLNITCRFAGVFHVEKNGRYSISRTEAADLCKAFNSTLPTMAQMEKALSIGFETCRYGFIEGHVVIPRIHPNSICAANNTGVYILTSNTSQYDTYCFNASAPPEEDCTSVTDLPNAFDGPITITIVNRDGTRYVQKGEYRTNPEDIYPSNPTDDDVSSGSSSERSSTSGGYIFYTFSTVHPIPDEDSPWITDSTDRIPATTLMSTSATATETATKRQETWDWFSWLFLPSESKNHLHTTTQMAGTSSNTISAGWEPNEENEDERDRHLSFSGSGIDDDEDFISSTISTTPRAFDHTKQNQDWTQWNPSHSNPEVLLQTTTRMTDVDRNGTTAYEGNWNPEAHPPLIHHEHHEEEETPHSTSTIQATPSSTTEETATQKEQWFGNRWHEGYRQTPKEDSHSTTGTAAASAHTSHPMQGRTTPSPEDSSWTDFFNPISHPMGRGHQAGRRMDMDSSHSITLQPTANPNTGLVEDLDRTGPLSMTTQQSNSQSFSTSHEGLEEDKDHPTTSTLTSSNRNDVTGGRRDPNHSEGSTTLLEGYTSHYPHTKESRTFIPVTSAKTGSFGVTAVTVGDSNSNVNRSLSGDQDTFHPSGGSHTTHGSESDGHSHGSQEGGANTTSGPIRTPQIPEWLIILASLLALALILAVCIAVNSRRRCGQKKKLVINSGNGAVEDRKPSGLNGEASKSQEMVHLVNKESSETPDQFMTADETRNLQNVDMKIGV

Columns and labels:
[1] = target: T1, MDK-SFB (FLAG-fusion MDK) (human) (UniProt P21741); assay: co-IP; whole cell lysates of ESCC cells transfected with MDK-SFB, MMP2-SFB or MMP9-SFB; IP lysis buffer (50 mM Tris, 150 mM NaCl, 0.5% NP-40, 5 mM EDTA); anti-FLAG M2 beads overnight; blots for endogenous SRGN and CD44
T1 sequence: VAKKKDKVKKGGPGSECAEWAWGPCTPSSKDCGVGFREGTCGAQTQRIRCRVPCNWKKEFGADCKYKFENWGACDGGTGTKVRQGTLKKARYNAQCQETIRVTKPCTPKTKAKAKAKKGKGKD

[2] = target: T2, serglycin (SRGN), endogenous in ESCC cells (human (endogenous in KYSE150 and KYSE410)) (UniProt P10124); assay: proximity ligation; Duolink in situ PLA on KYSE150 and KYSE410 cells; a pair of primary antibodies from different species (mouse anti-SRGN with goat anti-MDK, rabbit anti-MMP2 or rabbit anti-MMP9); probes < 40 nm apart give a spot; negative control with IgG in place of one primary antibody
T2 sequence: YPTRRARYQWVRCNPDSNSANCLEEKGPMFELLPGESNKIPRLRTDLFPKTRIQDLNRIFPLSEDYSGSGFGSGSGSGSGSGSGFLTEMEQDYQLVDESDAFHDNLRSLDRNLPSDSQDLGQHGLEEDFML

- binding [1]: binds
Molecule: CD44, endogenous in ESCC cells (from UniProt P16070 21-742) (receptor)

- binding [2]: binds
B1: midkine (MDK), endogenous in ESCC cells (protein, UniProt P21741 21-143)
chain: T1 sequence
